{"sequences": {"note": "The chains behind the UniProt entries cited, without tags or fusion partners.", "UniProt P20309, whole entry": "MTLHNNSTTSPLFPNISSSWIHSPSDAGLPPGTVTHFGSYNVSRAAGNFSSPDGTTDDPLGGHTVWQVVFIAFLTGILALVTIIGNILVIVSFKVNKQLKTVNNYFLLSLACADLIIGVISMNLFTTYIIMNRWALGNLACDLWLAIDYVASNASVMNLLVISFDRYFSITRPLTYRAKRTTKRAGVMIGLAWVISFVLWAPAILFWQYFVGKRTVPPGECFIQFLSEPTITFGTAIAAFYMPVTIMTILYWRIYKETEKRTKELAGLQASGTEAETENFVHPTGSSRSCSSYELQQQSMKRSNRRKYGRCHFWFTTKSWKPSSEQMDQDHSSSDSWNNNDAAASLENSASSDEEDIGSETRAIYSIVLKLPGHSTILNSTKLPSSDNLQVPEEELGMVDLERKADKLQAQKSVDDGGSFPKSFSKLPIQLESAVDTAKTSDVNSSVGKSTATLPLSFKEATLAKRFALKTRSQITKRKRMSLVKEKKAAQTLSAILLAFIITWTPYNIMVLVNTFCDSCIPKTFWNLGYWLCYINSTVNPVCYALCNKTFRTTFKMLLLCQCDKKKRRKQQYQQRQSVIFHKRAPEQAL"}, "source": "patent US7192978B2", "about": "(priority 2002, dated 2007)", "biological_target": "T1, human M3 muscarinic receptors (Homo sapiens, UniProt P20309)", "T1 construct": "expressed in transfected cells; host or cells: CHO-K1 (Chinese hamster ovary) cells, stably transfected; membrane preparations", "format": "binding", "note": "Some entries share one result that the patent states for a list of compounds. At least one compound was matched to its structure with a doubt left.", "data": [{"compound": "C[N+]1(CCOc2ccccc2)CC[C@@H](OC(=O)C(O)(c2cccs2)c2cccs2)C1", "note": "(stereo partly drawn) [Example 4, (1*,3R)-3-(2-Hydroxy-2,2-dithien-2-ylacetoxy)-1-methyl-1-(2-phenoxyethyl)pyrrolidinium bromide]", "values": [{"measurement": "IC50", "value": "< 20", "unit": "nM"}]}]}
